Reference: US20120302614A1, “METHOD FOR IMPROVING CEREBRAL CIRCULATION OR TREATING A CEREBRAL BLOOD FLOW DISORDER” (OSAKA UNIVERSITY, priority 2007, published 2012)

Test system: Aβ injection model (Aβ 1-40 administered intracerebroventricularly)
Experiment: Morris water maze tests in Aβ injection model, Test Example 2
Type: in vivo, ddY mouse
Conditions: olmesartan medoxomil 1 mg/kg/day, hydralazine 30 mg/kg/day
Description: The therapeutic effect of olmesartan medoxomil in Aβ injection model and the dose dependency thereof were examined according to the following experimental schedule. [Experimental Schedule]: Prior to the experiment, 8-week old male ddY mice were administered olmesartan medoxomil (0.5 mg/kg/day, 1 mg/kg/day, 3 mg/kg/day or 6 mg/kg/day) or distilled water orally for four weeks (day −28 to −1). Then, Aβ 1-40 was administered to the mice intracerebroventricularly (day 0). […] Mice are released into the water, and the time it takes them to reach the platform is measured. […] The time it takes them to reach the platform is measured. • Probe test: The platform is removed, and mice are released and allowed to swim freely. […] The time they spent in that quadrant is measured. • Annnulus crossing: The number of times mice crossed the platform in the probe test is counted. […] The number of successive interceptions by the subject of the two adjoining beams on each bank is counted as locomotion score. • Long-term retention: On day 12 after the completion of the hidden platform test as a water maze test, mice are released into the water and the time it takes them to reach the platform is measured. • Working memory task: The platform is transferred and fixed at a new place. Mice are given four consecutive trials at intervals of as short as 20 seconds, and the time it takes them to reach the platform is measured. […]

CCCc1nc(C(C)(C)O)c(C(=O)OCc2oc(=O)oc2C)n1Cc1ccc(-c2ccccc2-c2nnn[nH]2)cc1 [olmesartan medoxomil, (5-methyl-2-oxo-1,3-dioxolen-4-yl)methyl 4-(1-hydroxy-1-methylethyl)-2-propyl-1-[4-[2-(tetrazol-5-yl)phenyl]phenyl]methyl-imidazole-5-carboxylate]
swimming speed: difference between groups: No significant difference | visible platform test: difference between groups: No significant difference
